For the test, the system named is OVCAR8. Description: cell count relative to DMSO vehicle (fold change); higher = more surviving senescent cells (less killing). The following applies: senescence inducer: cisplatin 10 µM 48 h, then 6 d recovery (CP senescent), exposure time 24 h.

Where “and” joins values, the source holds several entries; their conditions need not be identical. Equal entries are not always repeated. ± gives the standard deviation of the averaged measurements. The list shows a part of the results. Repeats in this data set agree poorly, so a single value says little.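 Cell counts came from imaging DAPI-stained nuclei, excluding as dead any cells lacking phalloidin-stained cytoplasm. Counts per well were normalized to the median vehicle-well count on that plate, and the values were averaged over two replicate plates.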

For `CCn1c(=O)c(-c2cc(NC(=O)Nc3ccccc3)c(F)cc2Br)cc2cnc(NC)cc21` [Ripretinib], the cell count by setting is: (compound dose 1 µM) 1.3; (compound dose 5 µM) 1 ± 0.26.
Take `CCOc1cc([C@@H](CS(C)(=O)=O)N2C(=O)c3cccc(NC(C)=O)c3C2=O)ccc1OC` [Apremilast]: the cell count reads like this: (compound dose 1 µM) 1.21 ± 0.02; (compound dose 5 µM) 0.851 ± 0.49.
`Cc1onc(C(=O)N2CCN(C(c3ccc(Cl)cc3)c3ccc(Cl)cc3)CC2)c1[N+](=O)[O-]`: the cell count reads like this: (compound dose 1 µM) 0.0425 ± 0.0078; (compound dose 5 µM) 0.058 ± 0.0057.
Take `Nc1ccccc1NC(=O)c1ccc(CNC(=O)OCc2cccnc2)cc1` [Entinostat (MS-275)]: the cell count turned out to be 1.14 ± 0.17 (compound dose 1 µM) and 0.71 ± 0.11 (compound dose 5 µM).
On to `CCCCC1=NC2(CCCC2)C(=O)N1Cc1ccc(-c2ccccc2-c2nnn[nH]2)cc1`, for which the cell count runs as follows: (compound dose 1 µM) 1.3 ± 0.42; (compound dose 5 µM) 1.17 ± 0.017.
`CN(C)CC[C@H](CSc1ccccc1)Nc1ccc(S(=O)(=O)NC(=O)c2ccc(N3CCN(Cc4ccccc4-c4ccc(Cl)cc4)CC3)cc2)cc1[N+](=O)[O-]`: the cell count (compound dose 1 µM) was 0.435 ± 0.12 and the cell count (compound dose 5 µM) was 0.267 ± 0.072.
Regarding `O=[N+]([O-])c1ccc2c(c1)S(=O)(=O)C=C2` [Stattic], the cell count stood at 1.14 ± 0.093 (compound dose 1 µM) and 0.587 ± 0.022 (compound dose 5 µM).
Regarding `CCNC(=O)CC[C@H](N)C(=O)O`, the cell count runs as follows: (compound dose 1 µM) 0.977 ± 0.085; (compound dose 5 µM) 0.715 ± 0.018.
As for `Nc1ncn([C@H]2C[C@H](O)[C@@H](CO)O2)c(=O)n1` [Decitabine], the cell count (compound dose 1 µM) came to 0.954 ± 0.074 and the cell count (compound dose 5 µM) was determined as 1.08 ± 0.088.
`O=C(NOCCO)c1ccc2cncn2c1Nc1ccc(I)cc1F` yielded a cell count (compound dose 1 µM) of 1.02 ± 0.03 and a cell count (compound dose 5 µM) of 0.852 ± 0.21.
With `CC(=O)Nc1ccc(NC(=S)NC(=O)c2ccc(C(C)(C)C)cc2)cc1` [Tenovin-1], the cell count by setting is: (compound dose 1 µM) 1.16 ± 0.03; (compound dose 5 µM) 1.23 ± 0.21.
Taken in the same sequence, the figures for `O=c1cc(-c2ccc(O)c(O)c2)oc2cc(O)cc(O)c12` [Luteolin] were 0.75 ± 0.33 and 0.686 ± 0.19.
Take `CC(C)N(CCCNC(=O)Nc1ccc(C(C)(C)C)cc1)C[C@H]1O[C@@H](n2ccc3c(N)ncnc32)[C@H](O)[C@@H]1O`: the cell count worked out at 0.887 ± 0.1 (compound dose 1 µM) and 0.727 ± 0.039 (compound dose 5 µM).
Turning to `O=C1C=C2CC3(O)COc4c(ccc(O)c4O)C3=C2C=C1O` (stereo not given) [Hematein], the cell count by setting is: (compound dose 1 µM) 1.17 ± 0.062; (compound dose 5 µM) 1.16 ± 0.025.
`Cc1cc(Nc2ccc(NC(=O)c3ccc(Nc4ccnc5ccccc45)cc3)cc2)nc(N)n1`: the cell count came to 0.534 ± 0.04 (compound dose 1 µM) and 0.162 ± 0.067 (compound dose 5 µM).
Consider `CN1CCN(c2ccc(-c3ccncc3-c3cc(F)c(O)c(F)c3)cc2)CC1`, for which the cell count (compound dose 1 µM) worked out at 1.03 ± 0.14 and the cell count (compound dose 5 µM) came out at 1.03 ± 0.12.
`O=C1NC(=O)C(Cc2c[nH]c3c(Cl)cccc23)N1` (stereo not given) [Necroptosis-IN-1]: the cell count (compound dose 1 µM) amounted to 1.37 ± 0.09 and the cell count (compound dose 5 µM) is 1.25 ± 0.15.
In the case of `CC(C)(C)C[C@@H]1N[C@@H](C(=O)N[C@H]2CC[C@H](O)CC2)[C@H](c2cccc(Cl)c2F)[C@]12C(=O)Nc1cc(Cl)ccc12`, the cell count runs as follows: (compound dose 1 µM) 0.741 and 1.17; (compound dose 5 µM) 0.476 and 0.914.
As for `O=c1c2ccccc2oc2ccccc12`, the cell count by setting is: (compound dose 1 µM) 0.893 ± 0.06; (compound dose 5 µM) 0.591 ± 0.31.
Take `CC1(C)CC[C@]2(C(=O)n3cnc(-c4ccccn4)c3)CC[C@]3(C)[C@H](C(=O)C=C4[C@@]5(C)C=C(C#N)C(=O)C(C)(C)[C@@H]5CC[C@]43C)[C@@H]2C1`: the cell count by setting is: (compound dose 1 µM) 0.286 ± 0.058; (compound dose 5 µM) 0.035 ± 0.018.

The values are drawn from the supplement of paper PMC12462457.
